Here are results for two molecules from PMC10910794, “Toxoplasma sortilin interacts with secretory proteins and it is critical for parasite proliferation” (Parasites & Vectors, 2024).

For experiment [1], the target named is T1, His-TgROP9 (Toxoplasma gondii) (UniProt S8F3X8).
T1 sequence: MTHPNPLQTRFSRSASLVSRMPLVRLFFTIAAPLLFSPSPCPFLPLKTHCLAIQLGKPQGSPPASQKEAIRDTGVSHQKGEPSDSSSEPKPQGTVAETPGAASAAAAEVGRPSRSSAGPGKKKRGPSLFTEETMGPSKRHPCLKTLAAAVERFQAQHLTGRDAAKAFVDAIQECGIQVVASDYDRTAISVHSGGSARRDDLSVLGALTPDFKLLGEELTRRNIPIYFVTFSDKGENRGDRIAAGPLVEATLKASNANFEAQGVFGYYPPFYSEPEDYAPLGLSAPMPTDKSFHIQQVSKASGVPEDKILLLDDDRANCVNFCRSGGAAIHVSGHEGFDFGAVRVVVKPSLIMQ
The experiment in a line: BLI; His-tagged proteins (1 μM) loaded on Ni-NTA sensors; GST-tagged sortilin at 100, 150, 200, 250 and 300 nM in PBS, 180 s association, 180 s dissociation; GST (1 μM) as negative control; both purified. (In general: BLI is a label-free optical method that tracks binding on a fibre tip over time.)

Experiment [2] deals with Native T. gondii sortilin (TGGT1_290160) (Toxoplasma gondii (endogenous in RH tachyzoites)). The experiment in a line: co-IP; rat anti-sortilin IgG immunoprecipitate of T. gondii RH tachyzoite lysate, Western blot with TgROP9-, TgMIC3- and TgSAG2-specific mouse IgG; Vero cell total proteins as negative control.

These are yes or no findings as the source states them, for the method shown. A result given as binding can be weak or reduced; the word gives no strength. For some assays here: Sequences can lack the tags named with a protein. For some assays here: Binding seen in cells or lysates may run through a third protein.

For “GST-tagged recombinant sortilin protein (Toxoplasma gondii (RH strain))”, the binding result in experiment [1] is “binds”.

B1: TgROP9 (protein, UniProt S8F3X8 1-353)
chain: MTHPNPLQTRFSRSASLVSRMPLVRLFFTIAAPLLFSPSPCPFLPLKTHCLAIQLGKPQGSPPASQKEAIRDTGVSHQKGEPSDSSSEPKPQGTVAETPGAASAAAAEVGRPSRSSAGPGKKKRGPSLFTEETMGPSKRHPCLKTLAAAVERFQAQHLTGRDAAKAFVDAIQECGIQVVASDYDRTAISVHSGGSARRDDLSVLGALTPDFKLLGEELTRRNIPIYFVTFSDKGENRGDRIAAGPLVEATLKASNANFEAQGVFGYYPPFYSEPEDYAPLGLSAPMPTDKSFHIQQVSKASGVPEDKILLLDDDRANCVNFCRSGGAAIHVSGHEGFDFGAVRVVVKPSLIMQ
Turning to B1, the binding entry in experiment [2] was “binds”.
